Results on 1 molecule are retold here after PMC11316107.

By UniProt entry, the sequences of proteins in these tests, tags left out. Where a name states a change or a piece, a line headed by the entry shows the natural chain unless it says otherwise.
UniProt Q8NI37: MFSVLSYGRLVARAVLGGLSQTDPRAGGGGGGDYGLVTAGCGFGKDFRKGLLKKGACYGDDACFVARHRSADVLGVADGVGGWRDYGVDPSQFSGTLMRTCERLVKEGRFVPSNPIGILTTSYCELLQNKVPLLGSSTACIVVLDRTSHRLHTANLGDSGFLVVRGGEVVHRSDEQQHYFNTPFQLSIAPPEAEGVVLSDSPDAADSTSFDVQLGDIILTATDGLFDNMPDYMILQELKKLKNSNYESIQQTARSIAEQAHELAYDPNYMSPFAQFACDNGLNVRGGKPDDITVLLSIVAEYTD

No constants are given. Whether binding was seen depends on the method and setting. Binding seen in cells or lysates may run through a third protein. A result given as binding can be weak or reduced; the word gives no strength. Tags and fused reporters may be left off the sequences shown.

The target in the experiment is PPTC7-FLAG (wild type) (human) (UniProt Q8NI37). Put plainly: co-IP; PPTC7-FLAG (wild type or mutant) as bait on anti-FLAG beads, 1-2 h at 4 °C, from transfected U2OS, U2OS FBXL4 KO (with or without FBXL4(HA) variants), 293T or 293T PPTC7 KO cells; with or without DFP 24 h or MLN4924; Tris-Triton lysis buffer (50 mM Tris-Cl pH 7.5, 150 mM NaCl, 1% Triton) ….

B1: HA-tagged FBXL4 wild type (protein, UniProt Q9UKA2 1-621)
chain: MSPVFPMLTVLTMFYYICLRRRARTATRGEMMNTHRAIESNSQTSPLNAEVVQYAKEVVDFSSHYGSENSMSYTMWNLAGVPNVFPSSGDFTQTAVFRTYGTWWDQCPSASLPFKRTPPNFQSQDYVELTFEQQVYPTAVHVLETYHPGAVIRILACSANPYSPNPPAEVRWEILWSERPTKVNASQARQFKPCIKQINFPTNLIRLEVNSSLLEYYTELDAVVLHGVKDKPVLSLKTSLIDMNDIEDDAYAEKDGCGMDSLNKKFSSAVLGEGPNNGYFDKLPYELIQLILNHLTLPDLCRLAQTCKLLSQHCCDPLQYIHLNLQPYWAKLDDTSLEFLQSRCTLVQWLNLSWTGNRGFISVAGFSRFLKVCGSELVRLELSCSHFLNETCLEVISEMCPNLQALNLSSCDKLPPQAFNHIAKLCSLKRLVLYRTKVEQTALLSILNFCSELQHLSLGSCVMIEDYDVIASMIGAKCKKLRTLDLWRCKNITENGIAELASGCPLLEELDLGWCPTLQSSTGCFTRLAHQLPNLQKLFLTANRSVCDTDIDELACNCTRLQQLDILGTRMVSPASLRKLLESCKDLSLLDVSFCSQIDNRAVLELNASFPKVFIKKSFTQ
On to B1, for which the binding result is recorded as “binds”.
